{
  "source": "paper PMC11423142",
  "about": "“Clec7a Worsens Long‐Term Outcomes after Ischemic Stroke by Aggravating Microglia‐Mediated Synapse Elimination” (Advanced Science, 2024)",
  "biological_target": "T1, myeloid differentiation protein 2 (MD2), mouse, endogenous (mouse (endogenous in mouse brain)) (UniProt Q9JHF9)",
  "T1 sequence": "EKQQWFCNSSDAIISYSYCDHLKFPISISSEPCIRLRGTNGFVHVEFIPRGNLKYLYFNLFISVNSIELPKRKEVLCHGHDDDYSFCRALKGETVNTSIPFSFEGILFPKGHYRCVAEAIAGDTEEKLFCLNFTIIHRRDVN",
  "assay": "co-IP; endogenous proteins from mouse brain after ischemic stroke, 400-500 µg protein; biotinylated anti-MD2 or anti-Clec7a antibody, NeutrAvidin agarose beads, overnight 4 °C; immunoblot",
  "note": "These are yes or no findings as the source states them, for the method shown. In cells and extracts the contact can be indirect. Some results given as binding are weak or reduced against the parent protein; the word gives no strength.",
  "data": [
    {"binder": "C-type lectin domain family 7 member A (Clec7a), mouse, endogenous (receptor, UniProt Q6QLQ4 1-244) MKYHSHIENLDEDGYTQLDFSTQDIHKRPRGSEKGSQAPSSPWRPIAVGLGILCFVVVVVAAVLGALGEYGHNSGRNPEEKDNFLSRNKENHKPTESSLDEKVAPSKASQTTGGFSQPCLPNWIMHGKSCYLFSFSGNSWYGSKRHCSQLGAHLLKIDNSKEFEFIESQTSSHRINAFWIGLSRNQSEGPWFWEDGSAFFPNSFQVRNTAPQESLLHNCVWIHGSEVYNQICNTSSYSICEKEL", "values": [
      {"measurement": "binding", "value": "binds"}
    ]}
  ]
}
